In patent publication US20210214459A1:
Substitutions are numbered along the chain they refer to. No constants are given. Whether binding was seen depends on the method and setting. Some entries that bind do so weakly or less than the wild type. For part of these data: Where a sequence is shown, tags or fusion partners need not be part of it.

Chains of the proteins cited; added tags and fusions are not shown. Residues count along the entry.
UniProt P21589, residues 27-549: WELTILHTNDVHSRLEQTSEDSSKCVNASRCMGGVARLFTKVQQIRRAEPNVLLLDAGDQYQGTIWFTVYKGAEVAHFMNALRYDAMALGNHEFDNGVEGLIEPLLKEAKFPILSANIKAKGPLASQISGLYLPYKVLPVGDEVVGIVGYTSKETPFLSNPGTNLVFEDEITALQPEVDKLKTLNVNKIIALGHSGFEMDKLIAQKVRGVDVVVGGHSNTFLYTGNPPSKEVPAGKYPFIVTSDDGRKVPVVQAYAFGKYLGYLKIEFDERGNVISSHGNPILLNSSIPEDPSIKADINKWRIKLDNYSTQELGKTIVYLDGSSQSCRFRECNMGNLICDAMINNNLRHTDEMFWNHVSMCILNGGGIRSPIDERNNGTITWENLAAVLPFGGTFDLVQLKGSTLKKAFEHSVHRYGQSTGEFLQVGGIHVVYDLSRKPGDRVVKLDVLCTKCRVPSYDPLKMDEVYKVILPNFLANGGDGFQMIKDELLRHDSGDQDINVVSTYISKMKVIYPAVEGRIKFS

T1: Recombinant Mouse 5'-Nucleotidase/CD73 Protein, CF (R&D Systems Cat: 4488-EN), Mouse CD73-His (mouse) (UniProt Q61503)
T1 sequence (looked up): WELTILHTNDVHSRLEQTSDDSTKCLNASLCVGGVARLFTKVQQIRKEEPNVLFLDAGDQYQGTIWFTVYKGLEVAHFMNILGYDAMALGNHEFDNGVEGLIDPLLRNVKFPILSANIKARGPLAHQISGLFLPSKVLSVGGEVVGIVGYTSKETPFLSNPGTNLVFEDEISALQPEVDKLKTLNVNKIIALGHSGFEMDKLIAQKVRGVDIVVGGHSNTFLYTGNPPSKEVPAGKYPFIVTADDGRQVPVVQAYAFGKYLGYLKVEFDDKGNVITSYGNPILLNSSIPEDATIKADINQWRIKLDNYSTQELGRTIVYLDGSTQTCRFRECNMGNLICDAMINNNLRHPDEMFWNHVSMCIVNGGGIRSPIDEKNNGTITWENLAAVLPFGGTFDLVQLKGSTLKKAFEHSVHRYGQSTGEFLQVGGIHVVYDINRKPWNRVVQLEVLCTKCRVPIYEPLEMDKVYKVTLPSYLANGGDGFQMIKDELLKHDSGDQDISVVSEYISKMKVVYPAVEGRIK

B1: 377.B (antibody, IgG4, V domains shown)
VH: EVQLLESGGGLVQPGGSLRLSCAASGFTFKSYAMSWVRQAPGKGLEWVSAISGSGSYTYYADSVKGRFTISRDNSKNTLYLQMNSLRAEDTAVYYCARGGLYGSGSYLSDFDLWGRGTLVTVSS
VL: EIVLTQSPATLSVSPGERATLSCRASQSVGSNLAWYQQKPGQAPRLLIYGASTRATGIPARFSGSGSGTEFTLTISSLQSEDFAVYYCQQHNAFPYTFGGGTKVEIK
B2: 379.B (antibody, human IgG4 S228P, kappa, V domains shown)
VH: B1 VH with K30S, S31R, A50S, S54T, S56G, Y57S
VL: EIVLTQSPATLSVSPGERATLSCRASQSVGSNLAWYQQKPGQAPRLLIYGASTRATGIPARFSGSGSGTEFTLTISSLQSEDFAVYYCQQHNAFPYTFGGGTKVEIKR
B3: 356.B (antibody, human IgG4 S228P, kappa, V domains shown)
VH: QVQLQESGPGLVKPSETLSLTCTVSGGSIEGRYWSWIRQPPGKGLEWIGYIYGSGSTKYNPSLKSRVTISVDTSKNQFSLKLSSVTAADTAVYYCARESQESPYNNWFDPWGQGTLVTVSS
VL: DIQMTQSPSSVSASVGDRVTITCRASQGISSWLAWYQQKPGKAPKLLIYAASSLQSGVPSRFSGSGSGTDFTLTISSLQPEDFATYYCQQGNSFPRTFGGGTKVEIKR
B4: 358.B (antibody, human IgG4 S228P, kappa, V domains shown)
VH: B3 VH with E30S, S54T, K58N
VL: B3 VL
B5: 374.B (antibody, human IgG4 S228P, kappa, V domains shown)
VH: B1 VH with K30S, S31Y, Y32N, A50S, S54T, S56G, Y57S
VL: B2 VL
B6: 918.C (antibody, V domains shown)
VH: B3 VH with E30S, G31S, R32Y, G53S, K58N
VL: DIQMTQSPSSVSASVGDRVTITCRASQGISSWLAWYQQKPGKAPKLLIYAASSLQSGVPSRFSGSGSGTDFTLTISSLQPEDFATYYCQQGNSFPRTFGGGTKVEIK
B7: 350.C (antibody, V domains shown)
VH: B3 VH with G31R, R32Y, S54R, K58N
VL: B6 VL
B8: 356.C (antibody, V domains shown)
VH: B3 VH
VL: B6 VL
B9: 358.C (antibody, V domains shown)
VH: B3 VH with E30S, S54T, K58N
VL: B6 VL

Columns and labels:
[1] = target: human CD73 expressed on the cell surface (human) (UniProt P21589); assay: flow cytometry, biotinylated antibody on CD8+ T cells in human whole blood, streptavidin-APC detection
[2] = target: human CD73 expressed on the cell surface (human) (UniProt P21589); assay: flow cytometry, biotinylated antibody on human whole blood, CD8+ T cells
[3] = target: T1, Recombinant Mouse 5'-Nucleotidase/CD73 Protein, CF (R&D Systems Cat: 4488-EN), Mouse CD73-His (mouse); assay: restated from the Octet results
[4] = target: T1, Recombinant Mouse 5'-Nucleotidase/CD73 Protein, CF (R&D Systems Cat: 4488-EN), Mouse CD73-His (mouse); assay: ForteBio Octet

binding [1] | binding [2] | binding [3] | binding [4] | Binder
binds | binds |  |  | B1
binds | binds |  |  | B2
binds | binds |  |  | B3
binds | binds |  |  | B4
binds | binds |  |  | B5
 |  | binds | binds | B6
 |  | binds | binds | B7
 |  | binds | binds | B8
 |  | binds | binds | B9
